Measured values published in paper doi:10.1101/564625.
Results are given in words; binding and its absence hold for the method and conditions named. Binding seen in cells or lysates may run through a third protein. Sequences can lack the tags named with a protein.

Amino acid sequences for entries named in this document (tags omitted).
UniProt Q9UJU2: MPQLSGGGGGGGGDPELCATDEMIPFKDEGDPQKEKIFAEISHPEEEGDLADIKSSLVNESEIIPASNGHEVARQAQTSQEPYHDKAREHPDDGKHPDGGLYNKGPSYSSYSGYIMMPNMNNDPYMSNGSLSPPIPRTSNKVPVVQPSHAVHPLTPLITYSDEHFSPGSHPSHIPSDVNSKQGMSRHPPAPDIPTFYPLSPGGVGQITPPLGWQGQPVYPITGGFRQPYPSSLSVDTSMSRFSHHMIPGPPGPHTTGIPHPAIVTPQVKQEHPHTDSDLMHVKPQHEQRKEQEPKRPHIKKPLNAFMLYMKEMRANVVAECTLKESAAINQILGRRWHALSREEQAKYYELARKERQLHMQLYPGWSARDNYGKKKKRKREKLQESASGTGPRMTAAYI

Target: T1, V5-FOXB2 (human) (UniProt Q5VYV0)
T1 sequence: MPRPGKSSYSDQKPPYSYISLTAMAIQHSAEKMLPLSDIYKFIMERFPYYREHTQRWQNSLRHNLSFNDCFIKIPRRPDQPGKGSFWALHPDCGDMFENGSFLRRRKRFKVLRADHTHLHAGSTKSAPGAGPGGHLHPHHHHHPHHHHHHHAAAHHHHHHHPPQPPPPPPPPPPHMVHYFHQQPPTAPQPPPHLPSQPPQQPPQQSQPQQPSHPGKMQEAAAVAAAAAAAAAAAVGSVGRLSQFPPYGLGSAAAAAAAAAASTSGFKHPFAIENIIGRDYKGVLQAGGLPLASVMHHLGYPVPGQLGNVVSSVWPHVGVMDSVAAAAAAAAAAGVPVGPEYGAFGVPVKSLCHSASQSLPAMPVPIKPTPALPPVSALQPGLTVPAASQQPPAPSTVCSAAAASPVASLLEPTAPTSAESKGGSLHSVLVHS
Assay: proximity ligation

With “Flag-LEF1 (293T) (from UniProt Q9UJU2 1-399)” the binding was “no binding”.
